# Results from one PubChem assay

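Mouse JNK3 kinase in lysate of cytokine-stimulated human HepG2 cells; biotin-c-Jun phosphorylation read by AlphaScreen luminescence after a 2 h reaction and 3 h bead step.
Each compound ran as a dilution series from about 0.6 nM up to 57.1 µM.
Fitted AC50 for either an inhibiting or an activating curve; a lower value means greater potency.
Calls come from the fitted dose curve (inhibitor, activator, inactive or inconclusive); every row here is inconclusive, including some full curves, so the exact cut-off is unclear.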

Values are in nM.
All entries here are filed as inconclusive.
These entries are mostly ones the record files as inconclusive; other results of the assay are not listed here.
A potency from a partial, single-point or poor curve is only a rough figure.
The first word of each remark tells which way the curve ran; it can be opposite to the aim of the assay.
An entry listed twice with the same setting is a separate test.

With O=[N+]([O-])c1ccc(Cl)cc1 the assay gave fitted potency 12589 nM (activator, full curve, poor fit).
With Nc1ncnc2c1nc(Br)n2[C@H]1O[C@H]2COP(=O)(O)O[C@H]2[C@@H]1O the assay gave fitted potency 39810 nM (inhibitor, single point).
With CC(C)NC[C@@H](O)COc1cccc2ccccc12 the assay gave fitted potency 39.81 nM (activator, full curve, poor fit).
With CCCC(CCC)C(=O)O the assay gave fitted potency 1.995 nM (activator, full curve, poor fit).
With COc1cc2c(cc1O)CCC1C2CC[C@@]2(C)C1CC[C@@H]2O (stereo not given in full) the assay gave fitted potency 39810 nM (inhibitor, single point).
With c1cc2ccc3cccc4ccc(c1)c2c34 the assay gave fitted potency 39810 nM (activator, partial curve).
With N[C@H](CCC(=O)N[C@H](CSN=O)C(=O)NCC(=O)O)C(=O)O the assay gave fitted potency 19952 nM (activator, partial curve, poor fit).
With COc1cc(NS(C)(=O)=O)ccc1Nc1c2ccccc2nc2ccccc12 the assay gave fitted potency 10000 nM (inhibitor, partial curve, poor fit).
With O=C(Nc1cccc(C(=O)Nc2ccc(S(=O)(=O)O)c3cc(S(=O)(=O)O)cc(S(=O)(=O)O)c23)c1)Nc1cccc(C(=O)Nc2ccc(S(=O)(=O)O)c3cc(S(=O)(=O)O)cc(S(=O)(=O)O)c23)c1 the assay gave fitted potency 39.81 nM (activator, full curve, poor fit).
With Brc1ccc(Oc2ccc(Br)cc2Br)c(Br)c1 the assay gave fitted potency 39810 nM (activator, partial curve).
With CC(C)N(CC[C@@](C(N)=O)(c1ccccc1)c1ccccn1)C(C)C the assay gave fitted potency 50.12 nM (activator, full curve, poor fit).
With O=c1c(O)c(-c2cc(O)c(O)c(O)c2)oc2cc(O)cc(O)c12 the assay gave fitted potency 15848 nM (inhibitor, single point).
With CC[C@H](NC(=O)c1c(C)c(-c2ccccc2)nc2ccccc12)c1ccccc1 the assay gave fitted potency 2.512 nM (activator, full curve, poor fit).
With Nc1nc(C(=O)O)c(N=Nc2ccccc2)c(=O)[nH]1 the assay gave fitted potency 3162 nM (inhibitor, single point).
With CS(=O)(=O)Nc1ccc(Cc2noc(-c3ccc4[nH]cc(CCN)c4c3)n2)cc1 the assay gave fitted potency 39810 nM (inhibitor, single point).
With O=C(c1cccc(F)c1)N1CCC2(CCN(Cc3nccs3)CC2)CC1 the assay gave fitted potency 25118 nM (inhibitor, partial curve).
With CC(C)C[C@@H](NC(=O)OCC1c2ccccc2-c2ccccc21)C(=O)O the assay gave fitted potency 31622 nM (inhibitor, single point).
With CCN1C(=O)C=CC1=O the assay gave fitted potency 15848 nM (activator, full curve, poor fit).
With N[C@H](CS(=O)O)C(=O)O the assay gave fitted potency 39810 nM (activator, single point).
With Cn1cccc1C(=O)N1CCC[C@@]2(CCN(c3ccccc3)C2)C1 the assay gave fitted potency 25118 nM (inhibitor, partial curve).
With O=C(Nc1cccc(C(=O)Nc2ccc(S(=O)(=O)O)c3cc(S(=O)(=O)O)cc(S(=O)(=O)O)c23)c1)Nc1cccc(C(=O)Nc2ccc(S(=O)(=O)O)c3cc(S(=O)(=O)O)cc(S(=O)(=O)O)c23)c1 the assay gave fitted potency 50.12 nM (activator, full curve, poor fit).
With COC(=O)[C@@]1(Cc2ccc(OC)cc2)[C@H]2c3cc(C(=O)N(C)C)n(Cc4ccc(C)c(F)c4F)c3C[C@H]2CN1C(=O)c1ccccc1 the assay gave fitted potency 12589 nM (inhibitor, single point).
With CC1(C)CCC(C)(C)c2cc(C(=O)Nc3ccc(C(=O)O)cc3)ccc21 the assay gave fitted potency 39810 nM (inhibitor, single point).
With O=[N+]([O-])CCO the assay gave fitted potency 15848 nM (activator, full curve, poor fit).
With O=c1c(-c2cccs2)nc2cnc(N3CCNCC3)nc2n1CCc1ccccc1 the assay gave fitted potency 15848 nM (activator, partial curve).
With CC[N+](CC)(CCCNC1=CC(=O)C(NCCC[N+](CC)(CC)Cc2ccccc2)=CC1=O)Cc1ccccc1 the assay gave fitted potency 12.59 nM (activator, full curve, poor fit).
With O=C1c2c(O)ccc(O)c2C(=O)c2c(NCCNCCO)ccc(NCCNCCO)c21 the assay gave fitted potency 12589 nM (inhibitor, partial curve).

Repeated from the top, 2 entries:

* O=[N+]([O-])c1ccc(Cl)cc1 | fitted potency 12589 nM (activator, full curve, poor fit)
* Nc1ncnc2c1nc(Br)n2[C@H]1O[C@H]2COP(=O)(O)O[C@H]2[C@@H]1O | fitted potency 39810 nM (inhibitor, single point)

Data taken from PubChem BioAssay AID530, deposited by NCATS (2006).